Measurements from paper PMC6403256, “ABHD5 blunts the sensitivity of colorectal cancer to fluorouracil via promoting autophagic uracil yield” (Nature Communications, 2019).
No constants are given. Whether binding was seen depends on the method and setting. For some of these results: Binding seen in cells or lysates may run through a third protein. Some entries that bind do so weakly or less than the wild type. For some of these results: Tags and fused reporters may be left off the sequences shown. Each block holds one molecule with its values, some of them ahead of it.

The chains behind the UniProt entries cited, without tags or fusion partners. Where a name states a change or a piece, a line headed by the entry shows the natural chain unless it says otherwise.
UniProt O00584: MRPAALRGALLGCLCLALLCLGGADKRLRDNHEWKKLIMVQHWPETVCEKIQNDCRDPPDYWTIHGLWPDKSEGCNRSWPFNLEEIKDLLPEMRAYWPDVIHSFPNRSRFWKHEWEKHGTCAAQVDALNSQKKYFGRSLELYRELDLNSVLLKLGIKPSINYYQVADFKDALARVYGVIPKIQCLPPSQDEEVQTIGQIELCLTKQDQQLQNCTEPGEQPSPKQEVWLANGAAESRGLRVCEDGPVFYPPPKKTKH

How the values were obtained:
His-PDIA5 = molecular target: T1, His-PDIA5 (human, UniProt Q14554 22-519); test: pull-down; competitive binding: 50 ug GST-RNASET2 mixed with 0, 50, 100, 200 ug GST-ABHD5, incubated with 50 ug immobilized His-PDIA5 at 4 C for 4 h; detected by blot; both purified
T1 construct: PDIA5, human, wild type; source: recombinant protein from Wuhan GeneCreate Biological Engineering Co., Ltd
T1 sequence (looked up): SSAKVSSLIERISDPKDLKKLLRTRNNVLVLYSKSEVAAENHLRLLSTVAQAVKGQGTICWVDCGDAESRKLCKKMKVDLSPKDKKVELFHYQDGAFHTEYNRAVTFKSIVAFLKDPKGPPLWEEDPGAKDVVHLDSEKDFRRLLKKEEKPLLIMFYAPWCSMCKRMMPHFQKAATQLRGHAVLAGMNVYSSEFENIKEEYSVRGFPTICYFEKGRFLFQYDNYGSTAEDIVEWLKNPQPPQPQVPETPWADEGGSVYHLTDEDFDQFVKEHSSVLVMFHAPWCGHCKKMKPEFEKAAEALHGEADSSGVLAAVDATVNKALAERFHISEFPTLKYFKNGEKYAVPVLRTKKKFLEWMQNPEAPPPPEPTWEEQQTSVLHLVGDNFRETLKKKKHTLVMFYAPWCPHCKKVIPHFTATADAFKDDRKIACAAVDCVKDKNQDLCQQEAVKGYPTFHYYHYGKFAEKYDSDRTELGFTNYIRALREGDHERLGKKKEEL

PDIA5 (human) = molecular target: T2, PDIA5 (human) (UniProt Q14554); test: co-IP; immunoprecipitation and Western blot; cell line, bait and buffer not stated
T2 sequence: T1 sequence (looked up)

[1] = molecular target: RNASET2, yeast two-hybrid fusion (human) (UniProt O00584); test: two-hybrid; yeast two-hybrid; bait and prey not stated

B1: PNPLA2 (patatin like phospholipase domain containing 2) (protein, UniProt Q96AD5 1-504)
chain: MFPREKTWNISFAGCGFLGVYYVGVASCLREHAPFLVANATHIYGASAGALTATALVTGVCLGEAGAKFIEVSKEARKRFLGPLHPSFNLVKIIRSFLLKVLPADSHEHASGRLGISLTRVSDGENVIISHFNSKDELIQANVCSGFIPVYCGLIPPSLQGVRYVDGGISDNLPLYELKNTITVSPFSGESDICPQDSSTNIHELRVTNTSIQFNLRNLYRLSKALFPPEPLVLREMCKQGYRDGLRFLQRNGLLNRPNPLLALPPARPHGPEDKDQAVESAQAEDYSQLPGEDHILEHLPARLNEALLEACVEPTDLLTTLSNMLPVRLATAMMVPYTLPLESALSFTIRLLEWLPDVPEDIRWMKEQTGSICQYLVMRAKRKLGRHLPSRLPEQVELRRVQSLPSVPLSCAAYREALPGWMRNNLSLGDALAKWEECQRQLLLGLFCTNVAFPPEALRMRAPADPAPAPADPASPQHQLAGPAPLLSTPAPEARPVIGALGL
binding (PDIA5 (human)): no binding

B2: ABHD5 (alpha-beta hydrolase domain-containing 5) (protein, UniProt Q8WTS1 1-349)
chain: MAAEEEEVDSADTGERSGWLTGWLPTWCPTSISHLKEAEEKMLKCVPCTYKKEPVRISNGNKIWTLKFSHNISNKTPLVLLHGFGGGLGLWALNFGDLCTNRPVYAFDLLGFGRSSRPRFDSDAEEVENQFVESIEEWRCALGLDKMILLGHNLGGFLAAAYSLKYPSRVNHLILVEPWGFPERPDLADQDRPIPVWIRALGAALTPFNPLAGLRIAGPFGLSLVQRLRPDFKRKYSSMFEDDTVTEYIYHCNVQTPSGETAFKNMTIPYGWAKRPMLQRIGKMHPDIPVSVIFGARSCIDGNSGTSIQSLRPHSYVKTIAILGAGHYVYADQPEEFNQKVKEICDTVD
binding (PDIA5 (human)): binds

Results, then the molecule that gave them:

binding (His-PDIA5): binds
Molecule: GST-RNASET2 (from UniProt O00584 25-256) (enzyme)

binding [1]: no binding
B3: ABHD5, yeast two-hybrid fusion (protein, UniProt Q8WTS1 1-349)
chain: B2 chain
